EP2853898A1
No constants are given. Whether binding was seen depends on the method and setting. In cells and extracts the contact can be indirect. Some results given as binding are weak or reduced against the parent protein; the word gives no strength.

Target: T1, myostatin ligand (human) (UniProt O14793)
T1 sequence: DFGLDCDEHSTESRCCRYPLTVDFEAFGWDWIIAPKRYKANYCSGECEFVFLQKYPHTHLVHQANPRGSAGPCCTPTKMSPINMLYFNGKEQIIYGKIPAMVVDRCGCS
Test: co-elution in SEC fractions 30-31 (66-100 kDa), shown by IRMA, Western blots and acid release in the reporter assay

myostatin prodomain (from UniProt O14793 24-266)
binding: binds
